Values from PubChem BioAssay AID652243 (Drosophila RNAi Screening Center, 2013).

Screen: 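Knock-downs that decrease or increase androgen receptor reporter signal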 (primary screen)
System: Drosophila S2R+ cells
Reagents: long dsRNA against Drosophila genes
Time to read-out: 72 h (48 h, then 24 h hormone)
Treatment: synthetic androgen R1881 at 10 nM for 24 h
Read-out: 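Per-well raw luminescence of the androgen-driven firefly reporter and of the Renilla control, two replicates each, without normalisation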
Scale: firefly reporter light: higher = more light from androgen-responsive reporter; Renilla control light: higher = more constitutive control signal (cell number, transfection)
Call rule: 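Across duplicate plates, a knock-down whose log firefly/Renilla ratio shifted a set fold down or up from the GFP/LacZ control mean was a hit; the downward cut appears as both 1.5 and 3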
Calls: active = hit: reporter lowered or raised; inactive = no hit
The deposit covers about 24,000 reagents; this is a random part of those with a known target gene and a result. In the full data, 246 (1%) are marked active. 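Plates not normalised; calls are printed but the firefly/Renilla ratio behind them is not deposited; fold cut for lowering reported inconsistently.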 Raw values vary from plate to plate and are shown uncorrected. Unmarked entries are inactive. A plus sign joins genes that one reagent is predicted to hit. Not given: the amount of reagent.

Target gene | amplicon | firefly reporter light, replicate 1 | firefly reporter light, replicate 2 | Renilla control light, replicate 1 | Renilla control light, replicate 2
Ir60d | DRSC04218 | 3.79e5 | 3.57e5 | 2.87e6 | 2.76e6
CG12477 | DRSC09886 | 1.99e5 | 2.21e5 | 2.00e6 | 2.59e6
CG12477 | DRSC24078 | 1.05e6 | 1.01e6 | 9.65e5 | 1.29e6
yip2 | DRSC03640 | 2.05e5 | 2.16e5 | 9.37e5 | 1.38e6
CG43184 | DRSC36531 | 9.35e5 | 8.08e5 | 1.33e6 | 1.70e6
CG14883 | DRSC15007 | 2.50e5 | 2.61e5 | 2.74e6 | 2.69e6
CG15170 | DRSC02471 | 1.46e5 | 1.34e5 | 1.36e6 | 1.25e6
CG16957 | DRSC02545 | 2.51e5 | 2.78e5 | 1.67e6 | 1.92e6
Sp1 | DRSC17622 | 7.23e5 | 7.50e5 | 1.15e6 | 1.24e6
Sp1 | DRSC18717 | 1.71e5 | 1.44e5 | 2.94e6 | 2.42e6
Sp1 | DRSC23810 | 3.79e5 | 2.75e5 | 1.01e6 | 6.93e5
zen2 | DRSC12633 | 66634 | 50469 | 9.47e5 | 1.17e6
zen2 | DRSC27908 | 5.12e5 | 3.84e5 | 1.85e6 | 1.59e6
lncRNA:CR31526 | DRSC21520 | 9.02e5 | 6.88e5 | 8.28e5 | 6.84e5
lncRNA:CR31526 | DRSC26871 | 6.61e5 | 4.21e5 | 1.24e6 | 6.48e5
lncRNA:CR31526 | DRSC39088 | 7.33e5 | 5.29e5 | 1.89e6 | 1.92e6
Trc8 | DRSC15437 | 1.03e5 | 1.27e5 | 1.13e6 | 8.27e5
Trc8 | DRSC28575 | 5.31e5 | 6.76e5 | 1.19e6 | 1.70e6
CG13843 | DRSC14693 | 2.31e5 | 2.41e5 | 2.74e6 | 2.24e6
CG12546 + CG14452 | DRSC11709 | 3.30e5 | 4.04e5 | 2.45e6 | 3.37e6
CG12546 + CG14452 | DRSC29979 | 5.48e5 | 4.70e5 | 1.49e6 | 1.59e6
Edg84A | DRSC12594 | 1.08e5 | 1.42e5 | 2.32e6 | 2.47e6
LysS | DRSC08677 | 73607 | 45481 | 6.14e5 | 6.84e5
LysS | DRSC27168 | 3.24e5 | 2.21e5 | 6.88e5 | 6.57e5

The list goes on; the last 3 above are carried over.
Target gene | amplicon | firefly reporter light, replicate 1 | firefly reporter light, replicate 2 | Renilla control light, replicate 1 | Renilla control light, replicate 2
Edg84A | DRSC12594 | 1.08e5 | 1.42e5 | 2.32e6 | 2.47e6
LysS | DRSC08677 | 73607 | 45481 | 6.14e5 | 6.84e5
LysS | DRSC27168 | 3.24e5 | 2.21e5 | 6.88e5 | 6.57e5
CG11123 | DRSC06040 | 2.45e5 | 3.21e5 | 1.76e6 | 1.52e6
CG11123 | DRSC28420 | 3.23e5 | 6.45e5 | 4.24e5 | 1.31e6
COX4 | DRSC02091 | 9.59e5 | 8.25e5 | 1.57e6 | 1.51e6
COX4 | DRSC23915 | 4.39e5 | 6.63e5 | 8.88e5 | 8.31e5
polyph | DRSC06254 | 2.24e5 | 1.74e5 | 1.46e6 | 8.86e5
ZnT77C | DRSC11766 | 2.83e5 | 2.41e5 | 3.18e6 | 2.67e6
ZnT77C | DRSC11767 | 3.42e5 | 2.53e5 | 2.16e6 | 1.91e6
CG7214 | DRSC03028 | 6.45e5 | 9.08e5 | 1.80e6 | 2.46e6
CG7214 | DRSC21869 | 9.85e5 | 1.06e6 | 1.48e6 | 1.39e6
CG7214 | DRSC29482 | 5.54e5 | 5.25e5 | 1.06e6 | 1.06e6
inaF-A | DRSC19660 | 4.53e5 | 5.08e5 | 3.67e6 | 3.07e6
CG5402 | DRSC15792 | 3.24e5 | 2.56e5 | 2.37e6 | 2.37e6
CG5402 | DRSC26273 | 4.26e5 | 4.56e5 | 1.06e6 | 1.12e6
CR43087 + CG34002 | DRSC26854 | 3.34e5 | 3.12e5 | 7.06e5 | 9.87e5
z | DRSC23134 | 7.93e5 | 9.90e5 | 1.10e6 | 1.22e6
Rheb | DRSC12148 | 60974 | 66973 | 3.03e5 | 2.58e5
